From article PMC5041916
These are yes or no findings as the source states them, for the method shown. Binding seen in cells or lysates may run through a third protein. Some entries that bind do so weakly or less than the wild type.

Amino acid sequences for entries named in this document (tags omitted).
UniProt P15311: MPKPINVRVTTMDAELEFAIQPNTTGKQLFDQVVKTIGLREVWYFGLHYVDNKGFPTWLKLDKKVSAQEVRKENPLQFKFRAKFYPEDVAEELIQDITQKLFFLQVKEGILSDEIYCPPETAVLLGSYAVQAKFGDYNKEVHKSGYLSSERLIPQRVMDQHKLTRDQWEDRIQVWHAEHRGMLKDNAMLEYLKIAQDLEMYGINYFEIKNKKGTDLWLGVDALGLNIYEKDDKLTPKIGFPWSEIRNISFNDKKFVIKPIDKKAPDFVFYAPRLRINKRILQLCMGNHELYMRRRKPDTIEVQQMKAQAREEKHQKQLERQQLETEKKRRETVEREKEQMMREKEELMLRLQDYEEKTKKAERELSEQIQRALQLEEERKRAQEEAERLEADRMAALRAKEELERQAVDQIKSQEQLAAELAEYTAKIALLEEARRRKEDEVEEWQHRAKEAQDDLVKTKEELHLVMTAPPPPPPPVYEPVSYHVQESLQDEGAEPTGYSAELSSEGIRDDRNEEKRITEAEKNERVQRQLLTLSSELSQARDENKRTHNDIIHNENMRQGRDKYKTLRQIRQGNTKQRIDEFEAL
UniProt P35241: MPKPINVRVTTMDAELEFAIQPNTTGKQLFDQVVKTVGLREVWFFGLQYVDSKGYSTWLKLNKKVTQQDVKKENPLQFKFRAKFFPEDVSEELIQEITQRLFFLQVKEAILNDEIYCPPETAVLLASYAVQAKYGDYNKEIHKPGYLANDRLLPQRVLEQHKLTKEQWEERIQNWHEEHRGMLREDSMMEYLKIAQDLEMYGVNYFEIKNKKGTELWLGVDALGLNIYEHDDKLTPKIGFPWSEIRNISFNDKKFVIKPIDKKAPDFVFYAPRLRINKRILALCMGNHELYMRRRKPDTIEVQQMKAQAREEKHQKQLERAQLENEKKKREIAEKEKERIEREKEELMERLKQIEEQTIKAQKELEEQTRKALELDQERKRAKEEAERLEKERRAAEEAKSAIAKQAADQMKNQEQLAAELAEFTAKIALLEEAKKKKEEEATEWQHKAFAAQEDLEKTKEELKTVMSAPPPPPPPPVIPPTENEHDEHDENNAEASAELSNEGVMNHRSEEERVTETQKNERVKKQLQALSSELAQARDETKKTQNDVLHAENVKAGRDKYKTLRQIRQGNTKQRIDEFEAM

Biological target: ErbB2 receptor tyrosine kinase (human (endogenous in SKBR3)) (UniProt P04626)
Experiment: proximity ligation; Duolink-II in situ PLA on fixed, permeabilized SKBR3 cells, endogenous proteins, pairs of primary antibodies; untreated or control-siRNA cells; also after 2 h 3 uM geldanamycin, or siRNA against ezrin, radixin or ErbB2 (association reduced)

In the case of ezrin (from UniProt P15311 1-586), the binding is reported as “binds”.

With radixin (from UniProt P35241 1-583) the binding was “binds”.
